# Experimental data published in US5736539A, “Inhibitors of farnesyl-protein transferase” (Merck & Co., Inc., priority 1995, dated 1998).
# Structures can show the parent of a compound that is named as a salt. For at least one compound, name, drawing or mass did not settle the structure.
# Target: Farnesyl-protein transferase (FPTase)
# Test: In vitro inhibition of ras farnesyl transferase (Ras-CVLS, [3H]FPP)
# Type: biochemical, bovine brain or recombinant human
# Conditions: Ras-CVLS 3.5 μM, 0.25 μM [3H]FPP; partially purified bovine or recombinant human enzyme; read-out: IC50 (concentration of the test compound which gives 50% inhibition of FPTase)
smiles,measurement,value
"N[C@@H](CS)CN1CCN(C(=O)c2cccc3ccccc23)C[C@@H]1CCS(=O)(=O)c1ccccc1 [Example 20, 1-[2(R)-Amino-3-mercaptopropyl]-4-naphthoyl-2(S)-(2-phenylsulfonylethyl)piperazine dihydrochloride]",IC50,1.6 nM
